Reference: US20110117120A1, “Plasmodium falciparum HLA class I restricted T-cell epitopes” (priority 2009, published 2011)
Some of these results come from one statement about several compounds together.

System: CD8+ or CD4+ T-cell depleted PBMC
Assay: ELISpot IFN-γ assay after CD8+ or CD4+ T-cell depletion (Example 2, Table 6)
Assay type: cell-based, human
Details: summary of Table 6
Description: PBMC population depletion was conducted using anti-human CD4+ and anti-CD8^+ coated Dynabeads™ M-450 (Dynal, Great Neck, N.Y.) following the manufacturer's instructions. Mock depletion was done with Dynabeads coated with Sheep anti-mouse IgG. Flow cytometry confirmed that T-cell subset depletions were >99% in all experiments. The data is presented as the % effect (decrease) in activity after T cell subset depletion. […]
The results of this study, summarized in Table 6, identified other CD8^+ epitopes, associated specific HLA class I genes.

| Sequence | reduction in ELISpot response after depletion of CD8^+ T-cells |
| --- | --- |
| FKADRYKSHGKGYNW [Ap8-6] | 99-100% |
| RYKSHGKGYNWGNYN [Ap8-7] | 99-100% |
